From the supplement of paper PMC8104966
The list shows a part of the results. Single values are uncertain here, since repeats match poorly.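 U2OS cells expressing ACE2 were combined with U2OS cells expressing full-length spike, and imaging quantified fusion as the fraction of nuclei displaying both cell types' fluorescent markers. Non-toxic compounds with a fusion z-score under -3, i.e., over three standard deviations below the plate's DMSO wells, are called inhibitory hits.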

The molecules below were run on U2OS ACE2 x SARS-CoV-2 spike co-culture (assay: cell-cell fusion (fraction fused) z-score vs plate DMSO control; higher = more fusion). Conditions: 30 µM; 5 h; toxicity class: non-toxic, passed QC.

Row | Compound | cell-cell fusion (z-score)
1 | O=C(NCCCNc1nc(Nc2cccc(NC(=O)N3CCCC3)c2)ncc1I)c1cccs1 | inactive: 1.97
2 | Cc1ccccc1C(OCCN(C)C)c1ccccc1.Cl (stereo not given) [Orphenadrine hydrochloride] | inactive: 2.25
3 | CC(=O)Oc1ccc(-c2coc3c4c(c(CC=C(C)C)c(OC(C)=O)c3c2=O)OC(C)(C)C=C4)cc1OC(C)=O | inactive: 3.29
4 | N#CC[C@H](C1CCCC1)n1cc(-c2ncnc3[nH]ccc23)cn1.O=P(O)(O)O | inactive: -0.275
5 | CC(C)(C)CC(=O)OCC(=O)[C@@]1(O)CCC2C3CCC4=CC(=O)C=C[C@]4(C)C3[C@@H](O)C[C@@]21C (stereo not given in full) | inactive: 1.24
6 | CCC(CC)[C@H](NC(C)=O)[C@@H]1[C@H](O)[C@@H](C(=O)O)C[C@H]1NC(=N)N.O.O.O [Peramivir Trihydrate] | inactive: 0.414
7 | Cl.Cl.OCCN1CCN(CCCN2c3ccccc3Sc3ccc(C(F)(F)F)cc32)CC1 | inactive: 2.75
8 | CCC(C)[C@H]1O[C@]2(C=C[C@@H]1C)C[C@@H]1C[C@@H](C/C=C(\C)[C@@H](OC3C[C@H](OC)C(O[C@H]4C[C@H](OC)[C@@H](O)[C@H](C)O4)[C@H](C)O3)[C@@H](C)/C=C/C=C3\CO[C@@H]4[C@H](OC)C(C)=C[C@@H](C(=O)O1)[C@]34O)O2 (stereo not given in full) | inactive: -1.65
9 | COc1ccc2c(=O)ccoc2c1 | inactive: 3.68
10 | NC(Cc1cccc(-c2ccccc2CP(=O)(O)O)c1)C(=O)O (stereo not drawn) [Phenylbenzene-omega-phosphono-alpha-amino acid] | inactive: 1.61
11 | O=C(O)c1cc(=O)cc(C(=O)O)[nH]1 [Chelidamic acid] | inactive: 2.17
12 | CO/N=C1/C[C@]2(C[C@@H]3C[C@@H](C/C=C(\C)C[C@@H](C)/C=C/C=C4\CO[C@@H]5[C@H](O)C(C)=C[C@@H](C(=O)O3)[C@]45O)O2)O[C@H](/C(C)=C/C(C)C)[C@H]1C | inactive: 2.53
13 | CNCCCN1c2ccccc2CCc2ccccc21.Cl [Desipramine hydrochloride] | inactive: 4.46
14 | CNCCCN1c2ccccc2CCc2ccccc21.Cl | inactive: 0.207
15 | Cc1cc2c(cc1Cl)N(C(=O)Nc1ccc(Oc3cccnc3C)nc1)CC2.Cl.Cl | inactive: -1.88
16 | N#CCCN.N#CCCN.O=C(O)/C=C/C(=O)O [3-Aminopropionitrile fumarate] | inactive: 1.95
17 | O=P1(NCCCl)OCCCN1CCCl (stereo not given) | inactive: 2.62
18 | O=P1(NCCCl)OCCCN1CCCl (stereo not given) [Ifosfamide] | inactive: 2.4
19 | Cl.OC1CCCCC1N1CCC(c2ccccc2)CC1 (racemic) [(±)-Vesamicol hydrochloride] | inactive: 1.42
20 | NCC(CC(=O)O)c1ccc(Cl)cc1 (racemic) [(±)-Baclofen] | inactive: 1.9
21 | COc1ccc(/C=C/C(=O)Nc2ccccc2C(=O)O)cc1OC [Tranilast] | active: -5.81
22 | CCOc1ccc2nc(S(N)(=O)=O)sc2c1 [Ethoxzolamide] | inactive: 1.32
23 | O=C(O)c1cc(/N=N/c2ccc(S(=O)(=O)Nc3ccccn3)cc2)ccc1O [Sulfasalazine] | inactive: 2.87
24 | O=C(NCC(O)CO)c1c(I)c(C(=O)NCC(O)CO)c(I)c(N(CCO)C(=O)CO)c1I (stereo not given) | inactive: 4.48

Row | Compound | cell-cell fusion (z-score)
25 | CC(C)(C)CC(C)(C)c1ccc(O)c(Cc2ccc(Cl)cc2Cl)c1 | inactive: 3.47
26 | CCCCCCOC(=O)NC(=N)c1ccc(NCc2nc3cc(C(=O)N(CCC(=O)OCC)c4ccccn4)ccc3n2C)cc1.CS(=O)(=O)O [Dabigatran Etexilate Mesylate] | inactive: 0.05
27 | CN(C)C(=O)Oc1cccc([N+](C)(C)C)c1.[Br-] [Neostigmine bromide] | inactive: 2.52
28 | CCN(CC)CCOC(=O)c1ccc(N)cc1.Cl | inactive: 0.419
29 | CCN(CC)CCOC(=O)c1ccc(N)cc1.Cl [Procaine hydrochloride] | inactive: 3.32
30 | C#CC1(O)CCC2C3CCC4=CC(=O)CCC4(C)C3CCC21C (stereo not given) | inactive: 2.54
31 | Cl.N#Cc1ccc(N2CCN(C(=O)COc3ccc4[nH]cc(CCN)c4c3)CC2)cc1 [Donitriptan monohydrochloride] | inactive: 1.07
32 | COc1cc(OC)c(OC)cc1C=O | inactive: 1.18
33 | Nc1ccccc1S(N)(=O)=O | inactive: 1.96
34 | Cc1cc(C2CCCCC2)n(O)c(=O)c1.NCCO | inactive: -0.457
35 | c1coc(CNc2ncnc3[nH]cnc23)c1 | inactive: 3.19
36 | CC(C)c1c(O)c(-c2cc3c(c(C(C)C)c2O)CCC2C(C)(C)CCC[C@]32C)cc2c1CCC1C(C)(C)CCC[C@]21C (stereo not given in full) | inactive: 2.77
37 | CCCN(CCC)CCc1cccc2c1CC(=O)N2.Cl | inactive: 0.928
38 | Nc1ncnc2c1nc(Br)n2C1OC2CO[P@@](=O)([O-])O[C@@H]2C1O.[Na+] (stereo not given in full) [8-Bromo-cAMP sodium] | inactive: 1.4
39 | CS(=O)(=O)c1ccc(C2=C(c3ccccc3)C(=O)OC2)cc1 [Rofecoxib] | inactive: 2.23
40 | CC(c1cc2ccccc2s1)N(O)C(N)=O (stereo not given) [Zileuton] | inactive: 1.54
41 | CC1(C)O[C@@H]2CC3C4CCC5=CC(=O)C=C[C@]5(C)C4[C@@H](O)C[C@]3(C)[C@]2(C(=O)CO)O1 (stereo not given in full) | inactive: 2.63
42 | CCOc1ccc(Cc2nccc3cc(OCC)c(OCC)cc23)cc1OCC.Cl | inactive: -0.391
43 | CCCCOc1ccc(OCCCN2CCOCC2)cc1.Cl | inactive: 4.48
44 | COC(=O)c1c(C)c2c(c(C)c1O)OC(=O)c1c(C)c(Cl)c(O)c(Cl)c1O2 | inactive: 1.7
45 | C=CC(C)(O)CC/C=C(\C)CCC=C(C)C (stereo not given) | inactive: 2.36
46 | CC(=O)OCC(=O)[C@@]1(O)[C@H](C)C[C@H]2[C@@H]3CCC4=CC(=O)C=C[C@]4(C)[C@@]3(F)[C@@H](O)C[C@@]21C [Dexamethason acetate] | inactive: 4.01
47 | Cl.Cl.NCCCCN | inactive: 1.63
48 | Cl.Cl.NCCCCN [Putrescine dihydrochloride] | inactive: 1.78

Entries 29 through 30, reprinted for reference:
Row | Compound | cell-cell fusion (z-score)
29 | CCN(CC)CCOC(=O)c1ccc(N)cc1.Cl [Procaine hydrochloride] | inactive: 3.32
30 | C#CC1(O)CCC2C3CCC4=CC(=O)CCC4(C)C3CCC21C (stereo not given) | inactive: 2.54

Additional results:

Row | Compound | cell-cell fusion (z-score)
49 | N=C1NCC[C@H]([C@@H]2NC(=O)/C(=C/NC(N)=O)NC(=O)[C@H](CNC(=O)CC(N)CCCN)NC(=O)[C@H](CO)NC(=O)[C@@H](N)CNC2=O)N1.O=S(=O)(O)O.O=S(=O)(O)O (stereo not given in full) [Capastat sulfate] | inactive: 1.99
50 | O=C(O)c1cc(O)c(O)c(O)c1 | inactive: 1.61
51 | Nc1nc(Cl)nc2c1ncn2[C@@H]1O[C@H](COP(=O)([O-])OP(=O)([O-])OP(=O)([O-])[O-])[C@H](O)C1O.[Na+].[Na+].[Na+].[Na+] (stereo not given in full) [2-Chloroadenosine triphosphate tetrasodium] | inactive: 0.295
52 | C[N+](C)(C)CCOP(=O)([O-])OP(=O)([O-])OC[C@H]1O[C@@H](n2ccc(N)nc2=O)C(O)[C@H]1O.O.O.[Na+] (stereo not given in full) [Cytidine 5'-diphosphocholine sodium salt hydrate] | inactive: 3.14
53 | C[C@]12CCC(=O)C=C1CCc1ccc(O)cc12 | inactive: 2.02
54 | Oc1cc2c(cc1O)C1c3ccc(O)c(O)c3OCC1(O)C2 (stereo not given) | inactive: 2.07
55 | CN(C)C(=N)NCCC[C@H](N)C(=O)O.Cl [N^G,N^G-Dimethylarginine hydrochloride] | inactive: 3.35
56 | COc1ccc2cc1Oc1ccc(cc1)C[C@H]1c3cc(c(OC)cc3CCN1C)Oc1c(OC)c(OC)cc3c1[C@H](C2)N(C)CC3 | inactive: 2.43
57 | Oc1ncnc2[nH]ncc12 [Allopurinol] | inactive: 2.58
58 | Cc1c(OCC(F)(F)F)ccnc1C[S@@](=O)c1nc2ccccc2[nH]1 [R-(+)-Lansoprazole] | inactive: 2.05
59 | COc1ccc(C2C(=O)c3ccccc3C2=O)cc1 | inactive: 0.0852
60 | O=C1c2ccccc2C(=O)C1c1ccc(Br)cc1 | inactive: 3.78
61 | CNCC(O)c1ccc(O)c(O)c1.Cl (racemic) [(±)-Epinephrine hydrochloride] | active: -5.58
62 | CC(CCc1ccccc1)NC(C)C(O)c1ccc(O)cc1.Cl (stereo not given) [Nylidrin hydrochloride] | inactive: 1.65
63 | CC(CCc1ccccc1)NC(C)C(O)c1ccc(O)cc1.Cl (stereo not given) | inactive: -0.946
64 | CS(=O)(=O)O.Cc1c(O)cccc1C(=O)N[C@@H](CSc1ccccc1)[C@H](O)CN1C[C@H]2CCCC[C@H]2C[C@H]1C(=O)NC(C)(C)C [Nelfinavir Mesylate] | active: -7.82
65 | C=CCN1CC[C@]23c4c5ccc(O)c4O[C@H]2[C@@H](OCCOCCOCCOCCOCCOCCOCCOC)CC[C@@]3(O)[C@H]1C5.O=C(O)C(=O)O [Naloxegol oxalate] | inactive: 1.17
66 | CC1=C(/C=C/C(C)=C/C=C/C(C)=C\C(=O)O)C(C)(C)CCC1 | inactive: 3.4
67 | CC1=C(/C=C/C(C)=C/C=C/C(C)=C\C(=O)O)C(C)(C)CCC1 [13-cis-retinoic acid] | inactive: 1.48
68 | C/C=C/c1ccc(OC)cc1 | inactive: 2.79
69 | O=C(O)[C@H](O)[C@@H](O)[C@H](O[C@@H]1O[C@H](CO)[C@H](O)[C@H](O)[C@H]1O)[C@H](O)CO | inactive: 1.85
70 | C[C@H]1C[C@@H](O)[C@]2(O)[C@@]13CC(=O)OC[C@@]2(C)[C@](C)(O)C(=O)C3 | inactive: 1.65
